Results from PMC12679573.
These are yes or no findings as the source states them, for the method shown. In cells and extracts the contact can be indirect. Binding can be weak; no strength is given.

The chains behind the UniProt entries cited, without tags or fusion partners. Where a name states a change or a piece, a line headed by the entry shows the natural chain unless it says otherwise. Residues count along the entry.
UniProt Q60932: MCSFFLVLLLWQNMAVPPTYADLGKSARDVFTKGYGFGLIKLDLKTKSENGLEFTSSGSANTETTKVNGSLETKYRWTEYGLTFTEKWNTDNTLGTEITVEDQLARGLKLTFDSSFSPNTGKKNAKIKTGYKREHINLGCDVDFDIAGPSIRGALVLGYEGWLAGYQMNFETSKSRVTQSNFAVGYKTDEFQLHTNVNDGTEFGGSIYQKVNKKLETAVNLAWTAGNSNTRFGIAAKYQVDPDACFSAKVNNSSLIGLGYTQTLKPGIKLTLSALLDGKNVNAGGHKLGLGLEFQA
UniProt P38647, residues 47-679: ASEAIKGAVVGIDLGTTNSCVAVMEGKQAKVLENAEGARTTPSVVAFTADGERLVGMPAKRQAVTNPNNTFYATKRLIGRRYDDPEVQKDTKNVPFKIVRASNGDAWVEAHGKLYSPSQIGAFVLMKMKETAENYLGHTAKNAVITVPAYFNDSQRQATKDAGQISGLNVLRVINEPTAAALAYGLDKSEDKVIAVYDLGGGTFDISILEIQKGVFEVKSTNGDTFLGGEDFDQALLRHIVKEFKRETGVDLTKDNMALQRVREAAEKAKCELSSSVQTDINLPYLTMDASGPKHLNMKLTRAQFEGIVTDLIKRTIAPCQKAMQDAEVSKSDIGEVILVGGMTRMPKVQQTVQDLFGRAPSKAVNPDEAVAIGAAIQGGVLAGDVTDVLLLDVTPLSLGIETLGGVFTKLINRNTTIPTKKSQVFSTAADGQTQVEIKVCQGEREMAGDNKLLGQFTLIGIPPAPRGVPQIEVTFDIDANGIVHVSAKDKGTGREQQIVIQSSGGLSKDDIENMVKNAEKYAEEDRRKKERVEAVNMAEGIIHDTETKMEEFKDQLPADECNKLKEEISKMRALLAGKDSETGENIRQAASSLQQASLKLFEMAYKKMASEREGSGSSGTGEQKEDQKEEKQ
UniProt P11881: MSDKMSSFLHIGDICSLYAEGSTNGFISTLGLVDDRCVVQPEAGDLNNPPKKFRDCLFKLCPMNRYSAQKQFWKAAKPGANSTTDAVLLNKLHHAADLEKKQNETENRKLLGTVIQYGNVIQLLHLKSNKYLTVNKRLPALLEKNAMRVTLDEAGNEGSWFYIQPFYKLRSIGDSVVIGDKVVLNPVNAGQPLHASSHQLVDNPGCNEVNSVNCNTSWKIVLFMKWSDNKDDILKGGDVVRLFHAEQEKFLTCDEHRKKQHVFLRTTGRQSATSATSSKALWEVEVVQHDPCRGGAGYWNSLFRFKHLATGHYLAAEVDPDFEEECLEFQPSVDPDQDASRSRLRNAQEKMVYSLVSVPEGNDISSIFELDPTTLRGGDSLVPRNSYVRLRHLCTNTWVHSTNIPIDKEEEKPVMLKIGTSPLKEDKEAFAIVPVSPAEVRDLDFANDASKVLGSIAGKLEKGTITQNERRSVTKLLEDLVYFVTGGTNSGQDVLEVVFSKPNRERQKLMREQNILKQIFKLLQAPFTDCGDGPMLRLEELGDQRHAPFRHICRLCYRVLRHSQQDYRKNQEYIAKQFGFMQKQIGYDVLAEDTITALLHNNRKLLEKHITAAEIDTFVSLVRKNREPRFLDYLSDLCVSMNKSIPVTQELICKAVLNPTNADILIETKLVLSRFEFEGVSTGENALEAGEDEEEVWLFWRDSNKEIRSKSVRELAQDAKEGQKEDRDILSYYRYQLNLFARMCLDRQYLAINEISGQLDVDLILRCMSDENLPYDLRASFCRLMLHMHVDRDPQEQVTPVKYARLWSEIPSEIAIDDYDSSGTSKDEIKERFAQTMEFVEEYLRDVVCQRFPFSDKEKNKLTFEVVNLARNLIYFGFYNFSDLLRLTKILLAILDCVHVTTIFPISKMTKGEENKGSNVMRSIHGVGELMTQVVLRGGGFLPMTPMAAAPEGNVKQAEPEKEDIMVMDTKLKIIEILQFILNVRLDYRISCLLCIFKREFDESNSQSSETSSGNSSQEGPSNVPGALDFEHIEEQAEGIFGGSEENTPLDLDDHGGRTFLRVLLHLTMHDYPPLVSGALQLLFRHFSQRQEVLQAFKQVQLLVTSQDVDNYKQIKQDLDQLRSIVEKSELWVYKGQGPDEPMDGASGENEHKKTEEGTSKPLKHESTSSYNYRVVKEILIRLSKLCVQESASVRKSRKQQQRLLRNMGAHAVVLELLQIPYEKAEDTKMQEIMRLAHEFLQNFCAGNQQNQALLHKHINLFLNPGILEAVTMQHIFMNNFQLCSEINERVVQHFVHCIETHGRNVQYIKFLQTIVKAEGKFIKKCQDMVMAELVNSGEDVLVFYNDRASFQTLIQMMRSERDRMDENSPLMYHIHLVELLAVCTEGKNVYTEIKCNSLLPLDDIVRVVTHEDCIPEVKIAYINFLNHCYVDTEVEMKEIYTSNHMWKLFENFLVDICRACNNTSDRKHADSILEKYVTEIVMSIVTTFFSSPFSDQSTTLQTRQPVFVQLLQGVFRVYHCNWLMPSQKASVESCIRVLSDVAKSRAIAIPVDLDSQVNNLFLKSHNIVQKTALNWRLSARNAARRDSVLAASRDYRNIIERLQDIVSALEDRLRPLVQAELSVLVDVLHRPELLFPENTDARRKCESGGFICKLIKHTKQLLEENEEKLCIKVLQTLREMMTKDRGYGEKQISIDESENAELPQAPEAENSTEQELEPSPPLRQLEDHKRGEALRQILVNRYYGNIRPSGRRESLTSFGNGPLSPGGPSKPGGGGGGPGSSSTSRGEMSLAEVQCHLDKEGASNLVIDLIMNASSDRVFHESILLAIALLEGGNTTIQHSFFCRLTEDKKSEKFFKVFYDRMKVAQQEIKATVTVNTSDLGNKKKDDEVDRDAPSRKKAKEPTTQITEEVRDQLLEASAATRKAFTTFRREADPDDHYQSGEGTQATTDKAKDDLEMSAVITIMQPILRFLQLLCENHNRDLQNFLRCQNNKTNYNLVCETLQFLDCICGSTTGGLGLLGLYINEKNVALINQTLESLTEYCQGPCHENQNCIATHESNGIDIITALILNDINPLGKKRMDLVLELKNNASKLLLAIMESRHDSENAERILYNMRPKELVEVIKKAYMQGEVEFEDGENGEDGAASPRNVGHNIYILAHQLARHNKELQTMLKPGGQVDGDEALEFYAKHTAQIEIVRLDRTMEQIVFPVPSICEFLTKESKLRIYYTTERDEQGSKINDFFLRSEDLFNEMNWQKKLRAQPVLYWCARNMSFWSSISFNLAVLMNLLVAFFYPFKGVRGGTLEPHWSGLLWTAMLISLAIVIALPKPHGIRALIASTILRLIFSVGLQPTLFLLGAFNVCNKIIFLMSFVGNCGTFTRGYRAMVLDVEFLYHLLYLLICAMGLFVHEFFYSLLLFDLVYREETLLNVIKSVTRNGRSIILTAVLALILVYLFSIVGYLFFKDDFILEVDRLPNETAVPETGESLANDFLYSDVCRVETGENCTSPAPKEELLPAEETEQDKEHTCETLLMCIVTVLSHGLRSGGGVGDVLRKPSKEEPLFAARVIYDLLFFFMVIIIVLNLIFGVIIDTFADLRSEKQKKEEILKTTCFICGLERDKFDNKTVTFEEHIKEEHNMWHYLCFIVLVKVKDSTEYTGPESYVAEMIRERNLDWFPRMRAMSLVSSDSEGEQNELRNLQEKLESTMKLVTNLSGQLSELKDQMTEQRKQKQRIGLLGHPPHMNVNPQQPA

Legend:
[1] = target: VDAC1 (mouse (endogenous in primary hepatocytes)) (UniProt Q60932); experiment: proximity ligation; Duolink in situ PLA on fixed, permeabilised primary hepatocytes of WT, hKO and hKI mice after PHx; primary antibodies to VDAC1, GRP75, IP3R1; confocal microscopy
[2] = target: GRP75 (mouse (endogenous in primary hepatocytes)) (UniProt P38647); experiment: as above

binding [1] | binding [2] | Substance
binds |  | IP3R1 (from UniProt P11881 1-2749) (receptor)
 | binds | VDAC1 (from UniProt Q60932)
